This experiment deals with Salmonella enterica serovar Typhimurium SL1344. Briefly: bacterial growth OD600 after 18 h with compound and polymyxin B; higher = more bacterial growth (less inhibition). The conditions noted are these: 50 µM, Mueller-Hinton broth.

SMILES strings stand for the structures. This is one part of the list. Values are raw readings; no control value is given beside them.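 In the initial screen, polymyxin B was used at a concentration that permeabilizes Salmonella's outer membrane but not its inner membrane. Maximum growth was set by DMSO wells with or without polymyxin B. Since plates varied, data were ranked per plate, and compounds giving the lowest OD600 advanced as hits.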

Consider `COc1ccccc1-n1cc(CN2CCCC(CNC(=O)c3cc(C)on3)C2)cn1` (stereo unspecified), for which the “bacterial growth OD600” value (polymyxin B 1 µg/mL) was found to be 0.905.
Same read-out and setting: the value for `O=C1N(Cc2cccc(F)c2F)CCCC1(O)CNC1CCCCCC1` (stereo unspecified) was 0.942.
For the molecule `CCC1CN(Cc2cc3ccccc3[nH]2)Cc2cc(OC)ccc2O1` (stereo unspecified), the “bacterial growth OD600” value (polymyxin B 0.75 µg/mL) turned out to be 0.007.
As to `Cc1c(C(=O)NC(c2ccccc2)c2ccco2)sc2ncnc(NCCc3ccccn3)c12` (stereo unspecified), the “bacterial growth OD600” value (polymyxin B 0.75 µg/mL) was determined as 0.726.
As to `COc1cc(Cl)c(CN2Cc3ccccc3OC(C)C2)cc1OC` (stereo unspecified), the “bacterial growth OD600” value (polymyxin B 0.75 µg/mL) was found to be 0.696.
On to `CC(Cc1cc(C(=O)N2CCC(O)(c3cccc(C(F)(F)F)c3)CC2)on1)c1ccccc1` (stereo unspecified), for which the “bacterial growth OD600” value (polymyxin B 0.75 µg/mL) is 0.682.
As to `COc1ccc(-c2nn(-c3ccccc3C)cc2CN(CC2CCC(=O)N2)C(C)C)cc1F` (stereo unspecified), where the note is “polymyxin B 1 µg/mL”, the “bacterial growth OD600” value was 0.006.
On to `CCN(CC)C(=O)Cn1cc(C(=O)N2CCN(c3nc4ccccc4s3)CC2)nn1`, for which the “bacterial growth OD600” value (polymyxin B 1 µg/mL) amounted to 0.851.
For the molecule `COc1ccc(-n2cc(CN3CCC(OC)CC3)c(-c3cccc(F)c3)n2)cc1`, the “bacterial growth OD600” value (polymyxin B 1 µg/mL) was 0.71.
Take `COc1ccc(Cl)cc1NC(=O)CCC1CCCN(C(=O)c2cc(C)[nH]n2)C1` (stereo unspecified): the “bacterial growth OD600” value (polymyxin B 1 µg/mL) is 0.881.
As for `O=C(CCc1nc(-c2ccccc2)no1)NC1CCCN(CCc2ccccc2)C1` (stereo unspecified), the “bacterial growth OD600” value (polymyxin B 1 µg/mL) was determined as 1.02.
On to `O=C(c1cc(COc2cccc(C(F)(F)F)c2)[nH]n1)N1CCCC1`, for which the “bacterial growth OD600” value (polymyxin B 1 µg/mL) amounted to 0.891.
On the same count and under the same terms, the value for `CCCNC(=O)NC1CC(=O)N(Cc2cccc3ccccc23)C1` (stereo unspecified) was 1.
As for `CC1CN(Cc2cccc3c2OCO3)Cc2cc(Cl)ccc2O1` (stereo unspecified), the “bacterial growth OD600” value (polymyxin B 0.75 µg/mL) amounted to 0.158.
For `COCCCNc1nncc(-c2ccc(OC)cc2OC)n1`, under “polymyxin B 0.75 µg/mL”, the “bacterial growth OD600” value was determined as 0.83.
With `COCCn1cnc2cc(NC(=O)C3CCCCC3)cc(C(=O)NCCc3ccccc3OC)c21`, the “bacterial growth OD600” value (polymyxin B 0.75 µg/mL) came out at 0.784.
Regarding `O=C(NCCC1=CCCCC1)C1CC12CCN(C(=O)CCc1cccnc1)CC2` (stereo unspecified), where the note is “polymyxin B 0.75 µg/mL”, the “bacterial growth OD600” value worked out at 0.817.
On the same count and under the same terms, in the case of `COC(=O)c1cc(CNC(=O)CSc2ccccn2)cc(NC(=O)c2cccc(OC)c2)c1` it was 0.588.
For `Cc1ccc(OCc2cc(C(=O)N3CCN(C4CCCCC4)CC3)no2)cc1C`, under “polymyxin B 1 µg/mL”, the “bacterial growth OD600” value is 0.575.
`OCCC1CN(Cc2ccc3c(c2)OCCO3)CCN1CC1CCCCC1` (stereo unspecified): the “bacterial growth OD600” value (polymyxin B 1 µg/mL) was 0.889.
With `COc1ccc(OC)c(-c2cc(Cl)c3c(c2)CC(CNC(=O)[C@H](CC(C)C)NC(C)=O)O3)c1` (stereo partly specified), where the note is “polymyxin B 0.75 µg/mL”, the “bacterial growth OD600” value turned out to be 0.772.
Consider `CCN(CC1CCCN(CCc2cccc(OC)c2)C1)C(=O)C1=C(C)OCCO1` (stereo unspecified), for which the “bacterial growth OD600” value (polymyxin B 1 µg/mL) is 1.06.
Consider `CSCCNC(=O)c1coc(COc2ccc(F)cc2)n1`, for which the “bacterial growth OD600” value (polymyxin B 1 µg/mL) was found to be 0.855.
For the molecule `CCOC(=O)C1(Cc2cccc(OC)c2)CCN(Cc2ccc(OC)c(OC)c2)CC1`, the “bacterial growth OD600” value (polymyxin B 1 µg/mL) was found to be 0.78.
In the case of `CC1(C)CC(NC2CCN(c3ccc(C(=O)NCc4ccc5c(c4)OCO5)cc3)CC2)CCO1` (stereo unspecified), the “bacterial growth OD600” value (polymyxin B 0.75 µg/mL) amounted to 0.822.
In the case of `O=C(c1ccccc1OC1CCN(Cc2ccc(Cl)s2)CC1)N1CCCCC1`, the “bacterial growth OD600” value (polymyxin B 1 µg/mL) stood at 0.009.
In the case of `CCOC(=O)N1CCC(N2CCCC(Nc3ccc(C)c(C)c3)C2)CC1` (stereo unspecified), for the setting “polymyxin B 1 µg/mL”, the “bacterial growth OD600” value amounted to 0.889.
Take `Cc1ccccc1N1C(=O)CN(C(=O)CCc2nc3ccccc3s2)CC1C` (stereo unspecified): the “bacterial growth OD600” value (polymyxin B 0.75 µg/mL) came out at 0.799.
As for `CC(C)c1nc(C(=O)N2CCC3(CCCN(CC4CC4)C3)C2)cs1` (stereo unspecified), under “polymyxin B 1 µg/mL”, the “bacterial growth OD600” value was determined as 1.15.
As for `CCOc1cc(CN2CCC(n3nccc3NC(=O)C(C)(C)C)CC2)ccc1OC`, for the setting “polymyxin B 1 µg/mL”, the “bacterial growth OD600” value was determined as 0.948.
On to `O=C(CCC1CCCN(C(=O)Cn2cnc3ccccc32)C1)NCc1ccccc1F` (stereo unspecified), for which the “bacterial growth OD600” value (polymyxin B 1 µg/mL) worked out at 1.14.
